Measurements: PMC3857245
Results are given in words; binding and its absence hold for the method and conditions named. Binding seen in cells or lysates may run through a third protein. Some results given as binding are weak or reduced against the parent protein; the word gives no strength.

Chains of the proteins cited; added tags and fusions are not shown.
UniProt O88943: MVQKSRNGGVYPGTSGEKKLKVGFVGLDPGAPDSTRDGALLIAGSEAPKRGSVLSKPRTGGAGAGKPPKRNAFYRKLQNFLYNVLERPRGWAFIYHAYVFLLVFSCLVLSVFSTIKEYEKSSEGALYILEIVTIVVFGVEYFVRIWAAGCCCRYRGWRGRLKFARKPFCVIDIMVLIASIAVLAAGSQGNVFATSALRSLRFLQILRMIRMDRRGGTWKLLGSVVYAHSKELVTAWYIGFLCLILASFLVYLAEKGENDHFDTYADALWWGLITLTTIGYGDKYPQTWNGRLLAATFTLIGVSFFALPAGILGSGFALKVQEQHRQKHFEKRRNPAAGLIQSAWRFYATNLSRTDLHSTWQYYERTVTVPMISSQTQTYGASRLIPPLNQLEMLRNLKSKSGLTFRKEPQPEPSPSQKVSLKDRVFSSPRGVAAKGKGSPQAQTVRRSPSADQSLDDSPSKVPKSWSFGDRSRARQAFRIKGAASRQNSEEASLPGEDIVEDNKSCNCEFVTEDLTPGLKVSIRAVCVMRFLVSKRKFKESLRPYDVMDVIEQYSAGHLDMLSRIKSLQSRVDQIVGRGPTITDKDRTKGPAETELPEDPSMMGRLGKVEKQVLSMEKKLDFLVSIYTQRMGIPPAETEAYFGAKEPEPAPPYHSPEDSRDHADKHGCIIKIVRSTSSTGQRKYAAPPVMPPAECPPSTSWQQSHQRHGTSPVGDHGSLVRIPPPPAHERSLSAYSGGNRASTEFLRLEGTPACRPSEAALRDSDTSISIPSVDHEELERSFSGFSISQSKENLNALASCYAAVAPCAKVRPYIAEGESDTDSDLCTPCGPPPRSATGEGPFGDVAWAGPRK
UniProt P24587: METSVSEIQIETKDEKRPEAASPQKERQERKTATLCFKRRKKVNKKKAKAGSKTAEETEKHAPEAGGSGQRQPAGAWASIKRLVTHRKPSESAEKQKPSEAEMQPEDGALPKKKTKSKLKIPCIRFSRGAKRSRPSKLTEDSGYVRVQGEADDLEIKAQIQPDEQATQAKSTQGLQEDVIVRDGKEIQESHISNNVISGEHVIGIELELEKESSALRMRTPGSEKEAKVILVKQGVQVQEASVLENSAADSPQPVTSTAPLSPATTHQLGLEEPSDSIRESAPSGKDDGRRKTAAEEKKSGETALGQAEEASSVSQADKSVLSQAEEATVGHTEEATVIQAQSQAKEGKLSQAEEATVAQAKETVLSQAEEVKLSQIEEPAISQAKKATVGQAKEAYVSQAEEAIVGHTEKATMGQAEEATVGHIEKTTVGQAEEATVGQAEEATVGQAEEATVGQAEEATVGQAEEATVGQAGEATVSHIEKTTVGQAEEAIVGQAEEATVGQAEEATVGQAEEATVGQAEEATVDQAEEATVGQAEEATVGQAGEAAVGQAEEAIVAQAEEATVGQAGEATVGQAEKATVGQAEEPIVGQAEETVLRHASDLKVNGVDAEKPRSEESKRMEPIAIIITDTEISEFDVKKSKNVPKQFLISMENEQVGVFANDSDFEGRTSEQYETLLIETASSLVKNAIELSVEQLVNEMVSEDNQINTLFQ

Target: 3xFLAG-tagged rat KCNQ2 (rat) (UniProt O88943)
Assay: co-IP; 1 µg purified AKAP150-His6 added to HEK293A lysate with KCNQ2-FLAG and CaM-V5, then anti-FLAG resin; calcium (–) and calcium (+) buffers; blot with anti-AKAP150; only the binder purified

“AKAP150-His6 (from UniProt P24587 1-714)” was tested, and the binding was “binds”.
